No constants are given. Whether binding was seen depends on the method and setting. Some entries that bind do so weakly or less than the wild type.
Biological target: monoclonal antibody 6E10
Assay: peptide competition of antibody staining of CXCR7-expressing cells, FACS

For SWPCNSSDCIV [SEQ ID NO 15], which binding is on record?
The binding was “binds”.

Reference: patent US20090022717A1
